No constants are given. Whether binding was seen depends on the method and setting. Binding seen in cells or lysates may run through a third protein. A result given as binding can be weak or reduced; the word gives no strength. Where a sequence is shown, tags or fusion partners need not be part of it.
Assays:
Flag-SPRYD3 = biological target: T1, Flag-SPRYD3 (UniProt Q8NCJ5); assay: co-IP; co-transfected HEK293T WT (also ΔFBXO45) cells, 24 h or 48 h; NP-40 buffer lysate; Flag-M2 beads at 4 °C overnight; elution with 3x Flag peptide; Western blot
T1 sequence: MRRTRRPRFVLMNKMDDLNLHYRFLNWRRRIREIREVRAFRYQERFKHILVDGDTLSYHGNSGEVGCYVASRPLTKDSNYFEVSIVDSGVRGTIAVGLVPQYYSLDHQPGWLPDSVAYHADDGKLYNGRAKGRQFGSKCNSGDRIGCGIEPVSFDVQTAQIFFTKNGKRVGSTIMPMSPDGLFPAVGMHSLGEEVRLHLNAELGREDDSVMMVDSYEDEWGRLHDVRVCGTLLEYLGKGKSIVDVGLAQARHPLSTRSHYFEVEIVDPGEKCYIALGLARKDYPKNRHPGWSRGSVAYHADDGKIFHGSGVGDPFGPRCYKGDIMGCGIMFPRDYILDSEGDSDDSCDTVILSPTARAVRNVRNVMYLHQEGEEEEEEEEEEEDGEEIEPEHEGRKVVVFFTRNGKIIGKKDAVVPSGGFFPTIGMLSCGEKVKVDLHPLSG

Flag-MYCBP2 = assay: as above

MYC-MYCBP2
binding (Flag-SPRYD3): binds

B1: MYC-SPRYD3 (protein, UniProt Q8NCJ5 1-442)
chain: MRRTRRPRFVLMNKMDDLNLHYRFLNWRRRIREIREVRAFRYQERFKHILVDGDTLSYHGNSGEVGCYVASRPLTKDSNYFEVSIVDSGVRGTIAVGLVPQYYSLDHQPGWLPDSVAYHADDGKLYNGRAKGRQFGSKCNSGDRIGCGIEPVSFDVQTAQIFFTKNGKRVGSTIMPMSPDGLFPAVGMHSLGEEVRLHLNAELGREDDSVMMVDSYEDEWGRLHDVRVCGTLLEYLGKGKSIVDVGLAQARHPLSTRSHYFEVEIVDPGEKCYIALGLARKDYPKNRHPGWSRGSVAYHADDGKIFHGSGVGDPFGPRCYKGDIMGCGIMFPRDYILDSEGDSDDSCDTVILSPTARAVRNVRNVMYLHQEGEEEEEEEEEEEDGEEIEPEHEGRKVVVFFTRNGKIIGKKDAVVPSGGFFPTIGMLSCGEKVKVDLHPLSG
binding (Flag-MYCBP2): binds

Source: PMC12664034, “The E3 ubiquitin ligase SPRYD3-MYCBP2(PAM) regulates mitotic cell fate and ubiquitination of USP11 to control spindle assembly” (The Journal of Biological Chemistry, 2025)
